Experimental findings from PubChem BioAssay AID1347080 (ICCB-Longwood Screening Facility, Harvard Medical School, 2019) are described below.

Some of the results follow.

The assay is described as follows: sensitizers of A549 cells to miR-34 induction, primary screen, imaging, A549 dox-inducible miR-34, nuclei and caspase counts (AID 1347080). As to all read-outs here: test concentration not given here. The settings on record: A549 miR-34 inducible, Hoechst nuclei count, 48 h; for fold change: measured here: relative caspase fold change +Dox/-Dox.
Where [1] appears, read: measured here: total cells with miR-34 induction, stronger effect = lower value.
[2] abbreviates: measured here: total cells without miR-34 induction.

For `CC1=C2[N-][C@@H](C(CC(N)=O)[C@@]2(C)CCC(=O)NCC(C)OP(=O)([O-])OC2C(CO)OC(n3cnc4cc(C)c(C)cc43)C2O)[C@]2(C)N=C(C(C)=C3N=C(C=C4N=C1C(CCC(N)=O)C4(C)C)C(CCC(N)=O)[C@]3(C)CC(N)=O)C(CCC(N)=O)[C@]2(C)CC(N)=O.[C-]#N.[Co+3]` (stereo partly drawn), the fold change was found to be 0.732. Besides, under setting [1], the cell count was determined as 8380. In addition, under setting [2], the cell count was found to be 9530.

In the case of `O=P(O)(O)F`, the fold change worked out at 0.713. Under setting [1], the cell count turned out to be 8580. Under setting [2], the cell count worked out at 9260.

Take `O=C(O[C@H]1CN2CCC1CC2)C1NCc2ccccc2[C@@H]1c1ccccc1` (stereo partly drawn): the fold change was determined as 0.59. For the same molecule, the cell count under setting [1] is 7560. Under setting [2], the cell count was 8130.

For `CN(C(=O)Cc1ccc(Cl)c(Cl)c1)[C@@H]1CCCC[C@@H]1N1CCCC1`, the fold change came out at 0.736. In addition, under setting [1], the cell count came out at 10200. In addition, the cell count under setting [2] was determined as 9670.

In the case of `O=C(OC1CN2CCC1CC2)c1ccccc1` (stereo not drawn), the fold change was determined as 1.22. Moreover, the cell count under setting [1] was 8910. The cell count under setting [2] worked out at 9150.

For the molecule `C/C1=C2N=C(/C=C3N=C(/C(C)=C4\[N-][C@@](C)([C@@H]5N=C1[C@](C)(CCC(=O)NC[C@@H](C)OP(=O)([O-])O[C@H]1[C@@H](O)[C@@H](n6cnc7cc(C)c(C)cc76)O[C@@H]1CO)[C@H]5CC(N)=O)[C@@](C)(CC(N)=O)[C@@H]4CCC(N)=O)[C@@](C)(CC(N)=O)[C@@H]\3CCC(N)=O)C(C)(C)[C@@H]/2CCC(N)=O.[C-]#N.[Co+3]`, the fold change turned out to be 1.4. In addition, the cell count under setting [1] was found to be 9310. Further, the cell count under setting [2] was 11200.

In the case of `CN(C(=O)Cc1ccc(Cl)c(Cl)c1)[C@@H]1CCCC[C@H]1N1CCCC1`, the fold change worked out at 0.843. Further, under setting [1], the cell count is 8650. For the same molecule, under setting [2], the cell count stood at 8810.

On to `CN(C(=O)Cc1ccc(Cl)c(Cl)c1)[C@@H]1CC[C@]2(CCCO2)C[C@H]1N1CCCC1`, for which the fold change came out at 1.09. Besides, under setting [1], the cell count came out at 10000. Also, the cell count under setting [2] came to 9900.

`NC(=O)Nc1ccc([As](=O)(O)O)cc1`: the fold change turned out to be 1.68. Also, under setting [1], the cell count is 8720. Further, under setting [2], the cell count worked out at 10400.

`CN(C(=O)Cc1ccccc1)[C@@H]1CC[C@]2(CCCO2)C[C@H]1N1CCCC1`: the fold change was 1.08. For the same molecule, the cell count under setting [1] stood at 9340. In addition, under setting [2], the cell count is 9810.

Turning to `CN(C)CCS`, the fold change stood at 0.816. Further, under setting [1], the cell count came out at 8690. The cell count under setting [2] was found to be 9510.
